Data as given in US20090325290A1.

Molecular target: human-mouse chimeric molecule DR-IE (human; mouse)
Assay: ELISA (FIG. 1b)

| binding | Binder |
| --- | --- |
| binds | MS-GPC-1 (Fab form) (Fab, V domains shown) VH: QVQLKESGPALVKPTQTLTLTCTFSGFSLSTSGVGVGWIRQPPGKALEWLALIDWDDDKYYSTSLKTRLTISKDTSKNQVVLTMTNMDPVDTATYYCARQYGHRGGFDHWGQGTLVTVSS VL: DIVLTQPPSVSGAPGQRVTISCSGSSSNIGSNYVSWYQQLPGTAPKLLIYDNNQRPSGVPDRFSGSKSGTSASLAITGLQSEDEADYYCQSYDFNESVFGGGTKLTVLG |
| binds | MS-GPC-10 (Fab form) (Fab, V domains shown) VH: QVQLKESGPALVKPTQTLTLTCTFSGFSLSTSGVGVGWIRQPPGKALEWLALIDWDDDKYYSTSLKTRLTISKDTSKNQVVLTMTNMDPVDTATYYCARQLHYRGGFDLWGQGTLVTVSS VL: DIVLTQPPSVSGAPGQRVTISCSGSSSNIGSNYVSWYQQLPGTAPKLLIYDNNQRPSGVPDRFSGSKSGTSASLAITGLQSEDEADYYCQSYDLTMGVFGGGTKLTVLG |

Results are given in words; binding and its absence hold for the method and conditions named. Binding calls can cover weak binding; strength is not graded here.
